Measured values published in PMC7819943, “Rice protein-binding microarrays: a tool to detect cis-acting elements near promoter regions in rice”.
The other results are listed elsewhere or left out.

Amino acid sequences for entries named in this document (tags omitted).
UniProt Q0JBA9, entry or part of it: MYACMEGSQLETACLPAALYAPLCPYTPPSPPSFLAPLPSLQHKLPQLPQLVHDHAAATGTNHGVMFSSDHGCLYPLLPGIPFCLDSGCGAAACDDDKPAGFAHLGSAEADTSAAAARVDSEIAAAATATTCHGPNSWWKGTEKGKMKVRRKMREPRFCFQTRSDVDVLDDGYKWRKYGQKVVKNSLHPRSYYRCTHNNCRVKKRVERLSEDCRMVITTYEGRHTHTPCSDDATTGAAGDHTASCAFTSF

Molecular target: OsWRKY34 (Oryza sativa, UniProt Q0JBA9 1-250)
Assay: protein-binding microarray (RPBM); PBS, 2% BSA, 51.3 ng/ul salmon testes DNA, 50 uM zinc acetate, 200 nM TF, 25 C, 1 h; high values mean tight binding
Details: protein: recombinant; tags: N-terminal polyhistidine and DsRed monomer fusion (pET32a); label: CyDye5-dUTP incorporated in the synthesized complementary strand; 3' TTTTT single-stranded linker to array surface; dsDNA, one strand shown
Outline: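 Transcription factors, each fused N-terminally to a polyhistidine tag and DsRed, were expressed in E. coli BL21-CodonPlus and purified on Ni–NTA. A custom Agilent array was made double-stranded by primer extension with Cy5-dUTP and blocked with 2% BSA. It was incubated with 200 nM protein in PBS, 2% BSA, salmon testes DNA and 50 µM zinc acetate at 25 °C for 1 h, then washed. The binding signal is per-feature fluorescence intensity (arbitrary units) read on an Axon 4000B scanner.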

Sequence	binding signal
GCAATCCGTGTAATTAATTATTTTTTCGTTTATACTCTCTCGGAGTCACCTAGTGCAG	10200 fluorescence intensity (a.u.)
CGCTGCCGCCACCATCCACTCACCACCGACACCGTTCGTGCGGAGTCACCTAGTGCAG	9180 fluorescence intensity (a.u.)
ATATCTCATTCAAATTTCTCCCTATTTTACCCTCAACTATCGGAGTCACCTAGTGCAG	8980 fluorescence intensity (a.u.)
CTCCCCGACGCCGCGCTCCACCACCTCCGCCTCATCTCGCCGGAGTCACCTAGTGCAG	10400 fluorescence intensity (a.u.)
ATTTGACGGACCCACATAAATCATGATCAGCATTCTGCAACGGAGTCACCTAGTGCAG	8550 fluorescence intensity (a.u.)
AATCAGCCACCCAGCAAGACATTCCTTTCCAACCTCACTCCGGAGTCACCTAGTGCAG	10100 fluorescence intensity (a.u.)
TCCTTGACCTACTTAACCAGGCTACACCGCACCCACCACACGGAGTCACCTAGTGCAG	9150 fluorescence intensity (a.u.)
TCGTTGACTCGATGTTTTTCATTTATTTGAGTGTGTGTTTCGGAGTCACCTAGTGCAG	11300 fluorescence intensity (a.u.)
CCCGTCGCTCCTCTCGCTCGCCCTGTGGCATGTCCCTCAGCGGAGTCACCTAGTGCAG	8040 fluorescence intensity (a.u.)
GTCATGTTACATATGCACCTTTGTACTTGCTCCATCTTATCGGAGTCACCTAGTGCAG	9250 fluorescence intensity (a.u.)
ACTGCATGCCCGGTTTCCTCGTCGTCGCAAGTTACCTGTCCGGAGTCACCTAGTGCAG	9570 fluorescence intensity (a.u.)
GTCGATTGACTTTTTACTCTCTGTGTCTGTGTCTCAGTTTCGGAGTCACCTAGTGCAG	11700 fluorescence intensity (a.u.)
TTCAACGTTTTCCTAACTTTTTCTTCAAACTTTCAATTTTCGGAGTCACCTAGTGCAG	9800 fluorescence intensity (a.u.)
CAATTGCCCGCGCTGCGCGGCCCACATGTCGGTCCAATTCCGGAGTCACCTAGTGCAG	8330 fluorescence intensity (a.u.)
CAACTAAACTCTGCTTTTGATACAATTGATCGGTATATATCGGAGTCACCTAGTGCAG	9030 fluorescence intensity (a.u.)
ACATTCCATCGCACTCATTTTAGAGGACACATATTTGAATCGGAGTCACCTAGTGCAG	8800 fluorescence intensity (a.u.)
TGTTAATCATCAGTTCATCACCCACTCACCAGTCACCACCCGGAGTCACCTAGTGCAG	8810 fluorescence intensity (a.u.)
ACTCGACTTCCGCGGCACCACCTCTTCCCCTCCCCTACCTCGGAGTCACCTAGTGCAG	9900 fluorescence intensity (a.u.)
AGATGTCCTAAATCCTGCGTGCCCGGTTGATCTGCTCCCACGGAGTCACCTAGTGCAG	9120 fluorescence intensity (a.u.)
AATCACGCGCTAATAGACTATTATGTTTTCCGTATGCACTCGGAGTCACCTAGTGCAG	8720 fluorescence intensity (a.u.)
CGCTTGGTGGCGGTGGGGCATCGACTGGGCCGGCGGGTTGCGGAGTCACCTAGTGCAG	8230 fluorescence intensity (a.u.)
GAATCTTAATATTTTGTATTACCACTGATATTTTTTCTTTCGGAGTCACCTAGTGCAG	8120 fluorescence intensity (a.u.)
CCCTCGCTGTCACCTCCCCGGTCCCATCTTTGGCCGCCGTCGGAGTCACCTAGTGCAG	11600 fluorescence intensity (a.u.)
GTGTTCTTTCAGCAAATTGTGATGCCTGCCAATCTGCCATCGGAGTCACCTAGTGCAG	8250 fluorescence intensity (a.u.)
AAGGTCACTCGGCAGTATTGACAGCGGTTTTGGTTGACGTCGGAGTCACCTAGTGCAG	9430 fluorescence intensity (a.u.)
GCTCGCGCCACTTGTAATTTTTCGCGTCTCCTCTCGTCCGCGGAGTCACCTAGTGCAG	10100 fluorescence intensity (a.u.)
CTATGTTCATTGTGGCCTCGTGTATTTGTTGGGTTGTGGACGGAGTCACCTAGTGCAG	10400 fluorescence intensity (a.u.)

Sequence	binding signal
ATTGTTTTCAATTGATTAATTTGCTCTCTCTATTTTTTTTCGGAGTCACCTAGTGCAG	10100 fluorescence intensity (a.u.)
TTTGTCCCTGTACGGTTCTACATTGTACATATATATATATCGGAGTCACCTAGTGCAG	8230 fluorescence intensity (a.u.)
TACGAGGAGGGCCCATGCGTCGGTGGGTAGGGTGAAAAGACGGAGTCACCTAGTGCAG	8690 fluorescence intensity (a.u.)
TATTACTCTTCCTATGCGCGAACAGTATTTTGGCATCTTTCGGAGTCACCTAGTGCAG	10600 fluorescence intensity (a.u.)
TCGCATTTCTCTCTTTTTCTCTCACGTTTCTCTCCCGTTCCGGAGTCACCTAGTGCAG	10000 fluorescence intensity (a.u.)
GAAAGATGATTTGGCAAGTAAATAAATAAGAAAAGAGAAGCGGAGTCACCTAGTGCAG	62600 fluorescence intensity (a.u.)
CACAGGCTGGCCGATGGGTGGGGAGGAGGCCTGCAGGGTGCGGAGTCACCTAGTGCAG	8510 fluorescence intensity (a.u.)
ACCACCGCCGCCGCCCTCGTCCTCGCCGCCGGCGGCCATGCGGAGTCACCTAGTGCAG	8230 fluorescence intensity (a.u.)
TCGTCGATCTCGTGGCCGCCGCACTTCCTATTTAAGCACCCGGAGTCACCTAGTGCAG	12400 fluorescence intensity (a.u.)
GCCGCGTTTATCCGTTACGTTTTCATTTTTTAATACGCCCCGGAGTCACCTAGTGCAG	9210 fluorescence intensity (a.u.)
AATGCTTCTTGTGGGCCCCATCACATTTATTTTAATTATCCGGAGTCACCTAGTGCAG	9390 fluorescence intensity (a.u.)
TCCATATGCATCTACATGTTGTTTCAATGATTGGTTGTTCCGGAGTCACCTAGTGCAG	10200 fluorescence intensity (a.u.)
CATATCTGTAGCCCGCTGCTCTTCTCTCTCTTCATTTATCCGGAGTCACCTAGTGCAG	9200 fluorescence intensity (a.u.)
AAAGTTTTAGTCTTGCTGCTCCGTCCATATTTTTATAACTCGGAGTCACCTAGTGCAG	10800 fluorescence intensity (a.u.)
CGACCACGCCGCACGGCCTATTGCTCCATCCACGTTTAAACGGAGTCACCTAGTGCAG	10900 fluorescence intensity (a.u.)
GGTTCGTCGTCAGGTGTGCTGAAACTGTCCCCATCCCTTCCGGAGTCACCTAGTGCAG	10600 fluorescence intensity (a.u.)
AATCTTTTTCTACTATCACTATATTATATTCTATTTTTACCGGAGTCACCTAGTGCAG	8820 fluorescence intensity (a.u.)
TTCTCCACCATTCCATCTCTTCTCTTTCTGCCTGAGCTGCCGGAGTCACCTAGTGCAG	11800 fluorescence intensity (a.u.)
AATTAATTTCTCGCTCCATTGTGTGTGTGGCCAAAGAAGACGGAGTCACCTAGTGCAG	8570 fluorescence intensity (a.u.)
CCGTCCCACTCCCACCCACGCCGCCGCCACCGCCGCCGCCCGGAGTCACCTAGTGCAG	13200 fluorescence intensity (a.u.)
TGCTATACTACTTGTCACATCCATCATCTCTCATTCAAATCGGAGTCACCTAGTGCAG	10400 fluorescence intensity (a.u.)
TCGTAGTCGTGATTTTCTACTTCAGAAACTTGCTGCTTCACGGAGTCACCTAGTGCAG	8170 fluorescence intensity (a.u.)
GTTTGACCCGGTTTTGGTCTCAGCGTGGGACCCACGTGGACGGAGTCACCTAGTGCAG	8240 fluorescence intensity (a.u.)
ATGGATGGACGTGCTGATGTGATGATCCCTTCTTATTGTTCGGAGTCACCTAGTGCAG	9770 fluorescence intensity (a.u.)
AACCGTGCACGTGACGCTTTCAGTTTCTTTTCTTTTCTTTCGGAGTCACCTAGTGCAG	8890 fluorescence intensity (a.u.)
GGCTCACGTATTTTCCTGGTTGATCTAGACCATCCTTTTTCGGAGTCACCTAGTGCAG	8860 fluorescence intensity (a.u.)
TACTCTATACTCTCTCCGTACTCATGAAAGAAGTCGTTTTCGGAGTCACCTAGTGCAG	8410 fluorescence intensity (a.u.)

Quoted at random: 4 records from the list
Sequence	binding signal
TATTACTCTTCCTATGCGCGAACAGTATTTTGGCATCTTTCGGAGTCACCTAGTGCAG	10600 fluorescence intensity (a.u.)
GGCTCACGTATTTTCCTGGTTGATCTAGACCATCCTTTTTCGGAGTCACCTAGTGCAG	8860 fluorescence intensity (a.u.)
TCGTCGATCTCGTGGCCGCCGCACTTCCTATTTAAGCACCCGGAGTCACCTAGTGCAG	12400 fluorescence intensity (a.u.)
TGCTATACTACTTGTCACATCCATCATCTCTCATTCAAATCGGAGTCACCTAGTGCAG	10400 fluorescence intensity (a.u.)
